Among the data in article doi:10.1101/162271 are binding values, retold here.

The chains behind the UniProt entries cited, without tags or fusion partners.
UniProt Q9C9W9: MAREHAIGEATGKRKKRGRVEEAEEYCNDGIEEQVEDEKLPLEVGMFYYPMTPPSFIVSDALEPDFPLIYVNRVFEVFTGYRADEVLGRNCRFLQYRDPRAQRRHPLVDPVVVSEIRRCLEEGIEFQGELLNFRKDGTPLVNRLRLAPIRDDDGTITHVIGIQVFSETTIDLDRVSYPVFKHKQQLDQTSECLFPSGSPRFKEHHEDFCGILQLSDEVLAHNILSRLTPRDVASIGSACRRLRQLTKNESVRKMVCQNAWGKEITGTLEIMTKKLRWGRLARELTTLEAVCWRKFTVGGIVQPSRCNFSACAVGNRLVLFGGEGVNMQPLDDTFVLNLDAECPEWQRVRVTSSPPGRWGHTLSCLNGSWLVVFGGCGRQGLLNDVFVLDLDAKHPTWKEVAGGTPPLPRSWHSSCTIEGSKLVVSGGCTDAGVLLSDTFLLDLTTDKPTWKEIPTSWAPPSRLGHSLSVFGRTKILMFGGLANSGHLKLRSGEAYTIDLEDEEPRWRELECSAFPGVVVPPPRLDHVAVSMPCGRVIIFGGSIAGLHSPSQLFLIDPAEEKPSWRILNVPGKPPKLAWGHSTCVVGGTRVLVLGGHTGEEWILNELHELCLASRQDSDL
UniProt Q8W420: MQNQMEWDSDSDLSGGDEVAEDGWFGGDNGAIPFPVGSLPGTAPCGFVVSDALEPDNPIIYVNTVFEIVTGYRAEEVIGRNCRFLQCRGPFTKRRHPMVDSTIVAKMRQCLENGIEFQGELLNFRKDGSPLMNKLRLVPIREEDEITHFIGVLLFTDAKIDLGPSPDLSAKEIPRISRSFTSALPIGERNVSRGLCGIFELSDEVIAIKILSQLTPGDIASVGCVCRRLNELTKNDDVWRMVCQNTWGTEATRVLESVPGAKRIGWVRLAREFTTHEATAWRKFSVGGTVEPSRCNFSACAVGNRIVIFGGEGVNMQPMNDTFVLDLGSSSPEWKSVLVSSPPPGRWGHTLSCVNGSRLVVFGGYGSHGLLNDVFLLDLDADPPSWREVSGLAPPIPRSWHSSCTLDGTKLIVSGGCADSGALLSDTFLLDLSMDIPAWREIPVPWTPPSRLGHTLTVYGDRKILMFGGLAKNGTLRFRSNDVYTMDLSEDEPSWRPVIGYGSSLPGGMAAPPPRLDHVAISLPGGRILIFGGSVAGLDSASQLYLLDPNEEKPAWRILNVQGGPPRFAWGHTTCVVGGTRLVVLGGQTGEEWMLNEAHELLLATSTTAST
UniProt Q94BT6: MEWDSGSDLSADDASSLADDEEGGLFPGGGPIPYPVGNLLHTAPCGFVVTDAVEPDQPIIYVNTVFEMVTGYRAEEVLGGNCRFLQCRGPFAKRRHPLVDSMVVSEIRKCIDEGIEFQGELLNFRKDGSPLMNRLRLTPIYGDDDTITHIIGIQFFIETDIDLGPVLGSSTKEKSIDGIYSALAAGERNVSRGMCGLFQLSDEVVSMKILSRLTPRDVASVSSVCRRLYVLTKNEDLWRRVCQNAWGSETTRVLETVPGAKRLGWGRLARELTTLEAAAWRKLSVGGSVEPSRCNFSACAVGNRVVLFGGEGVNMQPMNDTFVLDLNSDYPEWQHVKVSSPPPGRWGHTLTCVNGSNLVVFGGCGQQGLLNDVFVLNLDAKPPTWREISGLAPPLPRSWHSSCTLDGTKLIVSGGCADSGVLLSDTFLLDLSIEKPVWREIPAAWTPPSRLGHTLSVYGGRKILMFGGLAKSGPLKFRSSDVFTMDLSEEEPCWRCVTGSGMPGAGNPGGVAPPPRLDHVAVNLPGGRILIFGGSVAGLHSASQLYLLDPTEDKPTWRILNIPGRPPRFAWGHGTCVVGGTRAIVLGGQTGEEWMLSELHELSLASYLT

First the molecules themselves.
B1: GI, full-length, yeast two-hybrid prey (protein, UniProt Q9SQI2 1-1173)
chain: MASSSSSERWIDGLQFSSLLWPPPRDPQQHKDQVVAYVEYFGQFTSEQFPDDIAELVRHQYPSTEKRLLDDVLAMFVLHHPEHGHAVILPIISCLIDGSLVYSKEAHPFASFISLVCPSSENDYSEQWALACGEILRILTHYNRPIYKTEQQNGDTERNCLSKATTSGSPTSEPKAGSPTQHERKPLRPLSPWISDILLAAPLGIRSDYFRWCSGVMGKYAAGELKPPTIASRGSGKHPQLMPSTPRWAVANGAGVILSVCDDEVARYETATLTAVAVPALLLPPPTTSLDEHLVAGLPALEPYARLFHRYYAIATPSATQRLLLGLLEAPPSWAPDALDAAVQLVELLRAAEDYASGVRLPRNWMHLHFLRAIGIAMSMRAGVAADAAAALLFRILSQPALLFPPLSQVEGVEIQHAPIGGYSSNYRKQIEVPAAEATIEATAQGIASMLCAHGPEVEWRICTIWEAAYGLIPLNSSAVDLPEIIVATPLQPPILSWNLYIPLLKVLEYLPRGSPSEACLMKIFVATVETILSRTFPPESSRELTRKARSSFTTRSATKNLAMSELRAMVHALFLESCAGVELASRLLFVVLTVCVSHEAQSSGSKRPRSEYASTTENIEANQPVSNNQTANRKSRNVKGQGPVAAFDSYVLAAVCALACEVQLYPMISGGGNFSNSAVAGTITKPVKINGSSKEYGAGIDSAISHTRRILAILEALFSLKPSSVGTPWSYSSSEIVAAAMVAAHISELFRRSKALTHALSGLMRCKWDKEIHKRASSLYNLIDVHSKVVASIVDKAEPLEAYLKNTPVQKDSVTCLNWKQENTCASTTCFDTAVTSASRTEMNPRGNHKYARHSDEGSGRPSEKGIKDFLLDASDLANFLTADRLAGFYCGTQKLLRSVLAEKPELSFSVVSLLWHKLIAAPEIQPTAESTSAQQGWRQVVDALCNVVSATPAKAAAAVVLQAERELQPWIAKDDEEGQKMWKINQRIVKVLVELMRNHDRPESLVILASASDLLLRATDGMLVDGEACTLPQLELLEATARAIQPVLAWGPSGLAVVDGLSNLLKCRLPATIRCLSHPSAHVRALSTSVLRDIMNQSSIPIKVTPKLPTTEKNGMNSPSYRFFNAASIDWKADIQNCLNWEAHSLLSTTMPTQFLDTAARELGCTISLSQ

Results are given in words; binding and its absence hold for the method and conditions named. Some entries that bind do so weakly or less than the wild type.

The target of the experiment is T1, CDF6, full-length, yeast two-hybrid bait (Arabidopsis thaliana) (UniProt Q9LQX4).
T1 sequence: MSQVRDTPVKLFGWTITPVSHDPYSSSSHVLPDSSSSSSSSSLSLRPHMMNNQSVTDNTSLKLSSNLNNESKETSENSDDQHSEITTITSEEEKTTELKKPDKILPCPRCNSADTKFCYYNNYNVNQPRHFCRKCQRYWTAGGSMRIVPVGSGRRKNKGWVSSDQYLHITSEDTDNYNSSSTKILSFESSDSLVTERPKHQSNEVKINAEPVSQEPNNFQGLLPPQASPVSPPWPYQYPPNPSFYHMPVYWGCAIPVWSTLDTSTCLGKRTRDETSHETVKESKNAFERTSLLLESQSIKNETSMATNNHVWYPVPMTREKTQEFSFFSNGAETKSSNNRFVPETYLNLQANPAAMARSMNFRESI
The experiment in a line: two-hybrid.
Consider “FKF1, yeast two-hybrid prey (from UniProt Q9C9W9 1-619)”, for which the binding entry is recorded as “binds”. Consider “LKP2, yeast two-hybrid prey (from UniProt Q8W420 1-611)”, for which the binding entry is “binds”. With “ZTL, yeast two-hybrid prey (from UniProt Q94BT6 1-609)”, the binding result is “binds”. As to B1, the binding entry was “binds”.
